Not every detail of the peptide structures is certain; ends, links or a residue may be inferred.
Assay: Circular dichroism (CD) analysis, melting temperature and refolding
Assay type: physicochemical
Conditions: CD at 221 nm, 20° to 90° C., 1×PBS, 0.4-0.5 mg/ml

Work on `CC[C@H](C)[C@H](NC(=O)[C@H](C)NC(=O)[C@H](CC(=O)O)NC(=O)[C@H](CCCCN)NC(=O)[C@H](CC(C)C)NC(=O)[C@H](C)NC(=O)[C@H](CCC(=O)O)NC(=O)[C@@H](NC(=O)CNC(=O)[C@H](CCC(=O)O)NC(=O)[C@@H](NC(=O)[C@@H](NC(=O)[C@H](CCCCN)NC(=O)[C@H](C)NC(=O)[C@H](CCCCN)NC(=O)[C@H](CC(=O)O)NC(=O)[C@@H](NC(=O)[C@H](CC(C)C)NC(=O)[C@H](CCCNC(=N)N)NC(=O)[C@H](CCCCN)NC(=O)[C@H](Cc1ccc(O)cc1)NC(=O)[C@H](Cc1ccccc1)NC(=O)[C@H](CC(=O)O)NC(=O)[C@H](CO)NC(=O)[C@@H](NC(=O)CNC(=O)[C@H](Cc1ccc(O)cc1)NC(=O)[C@H](CSC1CC(=O)N(CCNC(=O)CN2CCN(CC(=O)O)CCN(CC(=O)O)CCN(CC(=O)O)CC2)C1=O)NC(=O)[C@H](CC(=O)O)NC(=O)[C@H](CC(C)C)NC(=O)[C@H](CCC(=O)O)NC(=O)[C@H](C)NC(=O)[C@H](CC(N)=O)NC(=O)[C@H](C)NC(=O)[C@H](C)NC(=O)[C@H](CCC(=O)O)NC(=O)[C@H](CCCCN)NC(=O)[C@H](C)NC(=O)[C@H](CO)NC(=O)[C@H](C)NC(=O)[C@H](CC(C)C)NC(=O)CN)C(C)C)[C@@H](C)CC)[C@@H](C)O)C(C)C)C(C)C)C(=O)N[C@@H](CC(C)C)C(=O)N[C@@H](C)C(=O)N[C@@H](C)C(=O)N[C@@H](CC(C)C)C(=O)N1CCC[C@H]1C(=O)O` (stereo partly shown) [PEP07968] yielded a Tm of 53 °C.

Source: patent US9382304B2, “Engineered polypeptides having enhanced duration of action with reduced immunogenicity” (priority 2011, dated 2016)
